PubChem BioAssay AID1159578 | Peter MacCallum Cancer Centre | 2015
Here is an unselected part of about 18,000 reagents tested. Over the whole deposit, about 1,030 (5.7%) got an active call. 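Inactive calls also include pools with fewer than 3300 nuclei, whose migration was not assessed.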 The raw values are shown without normalisation. Entries without a mark were called inactive.

Assay: 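Knock-downs that alter how fast lymphatic endothelial cells migrate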 (primary screen)
Cells: human lymphatic endothelial cells
Knock-down reagent: siRNA pool against human genes, 40 nM
Time to read-out: 48 h after transfection
Detection: 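High-content imaging of dye-stained cells in a scratch assay measures filled wound area and nuclei per well; duplicate means given as ratio to mock and robust z-score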
Reading the numbers: migration robust z-score: higher = faster migration into the scratch; migration relative to mock: higher = more scratch area covered than mock; nuclei per well: higher = more cells in the well
Rule for the call: 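Pools averaging fewer than 3300 nuclei are never called; remaining pools count as changed when migration robust z lies outside -2 to 2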
Calls: active = migration changed; inactive = no migration change, or too few cells

no.	target gene	migration robust z-score	migration class with cell-count check	migration relative to mock	nuclei per well, duplicate mean
1	CD93 (CD93 molecule)	-0.2	migration z between -2 and 2; enough cells	0.76	5016
2	OSBPL3 (oxysterol binding protein like 3)	-0.36	migration z between -2 and 2; enough cells	0.8	5496
3	DNAJC24 (DnaJ heat shock protein family (Hsp40) member C24)	-0.2	migration z between -2 and 2; enough cells	0.83	5600
4	MLLT3 (MLLT3 super elongation complex subunit)	1.37	migration z between -2 and 2; enough cells	1.24	5716
5	CALCB (calcitonin related polypeptide beta)	-0.83	migration z between -2 and 2; enough cells	0.64	5740
6	CYB5D2 (cytochrome b5 domain containing 2)	-1.59	migration z between -2 and 2; enough cells	0.46	3890
7	TMEM268 (transmembrane protein 268)	1.81	migration z between -2 and 2; enough cells	1.35	4758
8	FBXO15 (F-box protein 15)	-1.2	migration z between -2 and 2; enough cells	0.57	5686
9	EVI5 (ecotropic viral integration site 5)	-0.45	migration z between -2 and 2; enough cells	0.76	6218
10	AGAP1 (ArfGAP with GTPase domain, ankyrin repeat and PH domain 1)	1.19	migration z between -2 and 2; enough cells	1.19	7141
11	COMMD1 (copper metabolism domain containing 1)	0.26	migration z between -2 and 2; enough cells	0.96	5550
12	FAM151A (family with sequence similarity 151 member A)	0	migration z between -2 and 2; enough cells	0.88	4552
13	ABCC11 (ATP binding cassette subfamily C member 11)	-1.76	migration z between -2 and 2; enough cells	0.46	3824
14	COL11A1 (collagen type XI alpha 1 chain)	3.17 (active)	migration z above 2; enough cells	1.71	6727
15	IQCF1 (IQ motif containing F1)	0.69	migration z between -2 and 2; enough cells	1.06	6441
16	ESRP1 (epithelial splicing regulatory protein 1)	0.69	migration z between -2 and 2; enough cells	1.06	6742
17	TPM3 (tropomyosin 3)	0.36	migration z between -2 and 2; enough cells	0.98	5632
18	OTC (ornithine transcarbamylase)	1.45	migration z between -2 and 2; enough cells	1.08	6130
19	RAB11FIP3 (RAB11 family interacting protein 3)	0.22	migration z between -2 and 2; enough cells	0.94	6046
20	EPHB2 (EPH receptor B2)	-0.94	migration z between -2 and 2; enough cells	0.62	5502
21	CSF2RA (colony stimulating factor 2 receptor subunit alpha)	0.91	migration z between -2 and 2; enough cells	0.98	5324
22	TEKT5 (tektin 5)	-0.04	migration z between -2 and 2; enough cells	0.87	5120
23	HSH2D (hematopoietic SH2 domain containing)	-0.55	migration z between -2 and 2; enough cells	0.74	5320
24	ELK1 (ETS transcription factor ELK1)	-0.57	migration z between -2 and 2; enough cells	0.7	5123
25	VN1R10P (vomeronasal 1 receptor 10, pseudogene)	-0.34	migration z between -2 and 2; enough cells	0.74	6250
26	DCAF8 (DDB1 and CUL4 associated factor 8)	-0.8	migration z between -2 and 2; enough cells	0.68	4588
27	SH3RF2 (SH3 domain containing ring finger 2)	0.57	migration z between -2 and 2; enough cells	0.92	5506
28	NT5C1B (5'-nucleotidase, cytosolic IB)	0.18	migration z between -2 and 2; enough cells	0.84	5354
29	DUX1 (double homeobox 1)	-0.48	migration z between -2 and 2; enough cells	0.76	6789
30	MTRES1 (mitochondrial transcription rescue factor 1)	-0.86	migration z between -2 and 2; enough cells	0.66	5561
31	PARVG (parvin gamma)	0.32	migration z between -2 and 2; enough cells	0.96	5799
32	TUT1 (terminal uridylyl transferase 1, U6 snRNA-specific)	-0.59	migration z between -2 and 2; enough cells	0.73	4810
33	TMF1 (TATA element modulatory factor 1)	0.24	migration z between -2 and 2; enough cells	0.85	5348
34	MLX (MAX dimerization protein MLX)	-0.65	migration z between -2 and 2; enough cells	0.68	5876
35	ACER3 (alkaline ceramidase 3)	0.68	migration z between -2 and 2; enough cells	0.94	6682
36	SERINC5 (serine incorporator 5)	1.28	migration z between -2 and 2; enough cells	1.22	5414
37	KCNV2	0.24	migration z between -2 and 2; enough cells	0.85	5066
38	COL22A1 (collagen type XXII alpha 1 chain)	0.17	migration z between -2 and 2; enough cells	0.93	5556
39	TMEM62 (transmembrane protein 62)	-0.62	migration z between -2 and 2; enough cells	0.68	6558
40	EPPK1 (epiplakin 1)	0.16	migration z between -2 and 2; enough cells	0.92	6040
41	STOX1 (storkhead box 1)	-1.57	migration z between -2 and 2; enough cells	0.47	4976
42	BRD7 (bromodomain containing 7)	-2.46 (active)	migration z below -2; enough cells	0.25	3924
43	ABCC1	1.68	migration z between -2 and 2; enough cells	1.13	4350
44	PLLP (plasmolipin)	-1.24	migration z between -2 and 2; enough cells	0.56	4187
45	BOK (BCL2 family apoptosis regulator BOK)	0.36	migration z between -2 and 2; enough cells	0.98	5783
46	CRACDL (CRACD like)	0.1	migration z between -2 and 2; enough cells	0.92	5312
47	TMEM202 (transmembrane protein 202)	-0.6	migration z between -2 and 2; enough cells	0.73	4321
48	TRIM37 (tripartite motif containing 37)	0.49	migration z between -2 and 2; enough cells	0.9	5079
49	CTSB (cathepsin B)	1.38	migration z between -2 and 2; enough cells	1.07	5344
50	ZNG1E (Zn regulated GTPase metalloprotein activator 1E)	0.16	migration z between -2 and 2; enough cells	0.92	7222
51	PAK1 (p21 (RAC1) activated kinase 1)	-2.49	under 3300 nuclei; migration not judged	0.32	3146
52	SAMD9L (sterile alpha motif domain containing 9 like)	-0.32	migration z between -2 and 2; enough cells	0.8	6565
53	PHOX2A (paired like homeobox 2A)	1.15	migration z between -2 and 2; enough cells	1.02	6134
54	PCDHB11 (protocadherin beta 11)	0.14	migration z between -2 and 2; enough cells	0.92	5408
55	CD83 (CD83 molecule)	0.18	migration z between -2 and 2; enough cells	0.94	6446
56	TMEM147 (transmembrane protein 147)	0.82	migration z between -2 and 2; enough cells	1.1	6530
57	ESRP2 (epithelial splicing regulatory protein 2)	-1.75	migration z between -2 and 2; enough cells	0.42	4786

4 entries already listed, arranged by “nuclei per well, duplicate mean”, descending:
target gene	migration robust z-score	migration class with cell-count check	migration relative to mock	nuclei per well, duplicate mean
SAMD9L (sterile alpha motif domain containing 9 like)	-0.32	migration z between -2 and 2; enough cells	0.8	6565
PHOX2A (paired like homeobox 2A)	1.15	migration z between -2 and 2; enough cells	1.02	6134
PCDHB11 (protocadherin beta 11)	0.14	migration z between -2 and 2; enough cells	0.92	5408
PAK1 (p21 (RAC1) activated kinase 1)	-2.49	under 3300 nuclei; migration not judged	0.32	3146
